# Results of single-concentration screens

By UniProt entry, the sequences of proteins in these tests, tags left out. Residues count along the entry.
UniProt P9WNZ1, whole entry: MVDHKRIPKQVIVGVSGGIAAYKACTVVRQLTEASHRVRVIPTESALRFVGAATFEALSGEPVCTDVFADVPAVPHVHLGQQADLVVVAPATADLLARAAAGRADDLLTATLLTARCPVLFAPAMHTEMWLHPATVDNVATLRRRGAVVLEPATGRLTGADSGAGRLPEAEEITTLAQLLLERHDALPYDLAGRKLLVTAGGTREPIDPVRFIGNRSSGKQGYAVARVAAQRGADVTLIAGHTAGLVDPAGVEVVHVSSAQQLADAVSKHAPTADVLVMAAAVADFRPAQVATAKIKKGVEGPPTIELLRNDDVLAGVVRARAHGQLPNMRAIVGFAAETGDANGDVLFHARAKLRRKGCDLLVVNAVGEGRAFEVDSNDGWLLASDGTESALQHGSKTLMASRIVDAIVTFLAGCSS
UniProt P9WFT3, whole entry: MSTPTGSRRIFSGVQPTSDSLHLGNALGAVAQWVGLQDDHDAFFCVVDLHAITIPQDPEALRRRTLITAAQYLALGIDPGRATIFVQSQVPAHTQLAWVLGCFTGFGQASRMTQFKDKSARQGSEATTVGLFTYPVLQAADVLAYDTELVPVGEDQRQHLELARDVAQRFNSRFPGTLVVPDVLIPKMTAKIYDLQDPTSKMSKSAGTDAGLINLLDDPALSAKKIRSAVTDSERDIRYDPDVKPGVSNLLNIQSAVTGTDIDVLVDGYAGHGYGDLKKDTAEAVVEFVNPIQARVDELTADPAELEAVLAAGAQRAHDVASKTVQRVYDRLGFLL
UniProt A4I591, 1-473: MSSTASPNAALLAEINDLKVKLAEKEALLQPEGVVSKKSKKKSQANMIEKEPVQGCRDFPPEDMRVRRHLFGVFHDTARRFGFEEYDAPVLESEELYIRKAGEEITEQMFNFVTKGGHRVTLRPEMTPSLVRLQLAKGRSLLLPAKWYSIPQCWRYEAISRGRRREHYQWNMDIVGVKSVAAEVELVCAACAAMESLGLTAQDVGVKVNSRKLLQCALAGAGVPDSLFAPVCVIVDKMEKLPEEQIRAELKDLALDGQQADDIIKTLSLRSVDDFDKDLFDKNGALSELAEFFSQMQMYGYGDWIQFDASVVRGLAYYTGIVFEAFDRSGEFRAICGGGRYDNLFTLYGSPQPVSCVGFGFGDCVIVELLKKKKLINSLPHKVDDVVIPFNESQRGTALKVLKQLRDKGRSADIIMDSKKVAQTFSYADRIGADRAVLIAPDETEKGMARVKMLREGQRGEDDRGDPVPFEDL

A: 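Coenzyme A biosynthesis protein CoaBC, Mycobacterium tuberculosis (UniProt P9WNZ1). Enzyme assay of CoaBC with a phosphate dye (Biomol Green) read at 650 nm. Compounds at 30 µM. Higher reads as stronger inhibition, judged from the few compounds that gave an IC50. Most strong results did not repeat in a second test. About 67,000 compounds were tested under these conditions; 0.06% (about 40) showed 50% or more at least once.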
B: 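Assay of Toxoplasma gondii numbers, read through their beta-galactosidase reporter with a colour substrate. Concentration: 10 µM. Higher reads as fewer parasites (inferred from which compounds were picked for retests). Of about 67,000 compounds tested this way, about 260 (0.38%) reached 50% or more in at least one test.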
C: 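Cell assay of Leishmania donovani living inside macrophages; the read-out is not stated. Concentration: 30 µM. Direction is inferred from retests: higher values go with stronger inhibition. Size under these conditions: about 69,000 compounds, about 1,000 of them at 50% or above in at least one test.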
D: 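Enzyme assay of tryptophanyl-tRNA synthetase; the read-out is not stated. Target: Tryptophan-tRNA ligase, Mycobacterium tuberculosis (UniProt P9WFT3). Concentration: 10 µM. Direction is not recorded; retested compounds ran higher, which suggests that high means inhibition. About 65,000 compounds were tested under these conditions; 0.098% (about 64) showed 50% or more at least once.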
E: 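Histidine-tRNA ligase, Leishmania infantum (UniProt A4I591). Enzyme assay of histidyl-tRNA synthetase; the read-out is not stated. Tested at 30 µM. Higher reads as stronger inhibition (inferred: compounds with an IC50 in retests scored well above the rest). The assay is labelled LdHisRS but filed under L. infantum. Size under these conditions: about 69,000 compounds, about 410 of them at 50% or above in at least one test.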

Each number is a percent effect as filed.
How 0% and 100% were set is not recorded. Most values in the screen are low, and negative values occur.
Compounds were drawn at random from those tested, without regard to their results.
Two or more numbers in one place are separate tests of the same structure; such repeats can differ widely.

Result for CCc1nc(CN(C)C2CCN(CCS(C)(=O)=O)C2)no1 (stereo not given) was A: 4.302%; B: -1.751%; C: 13.12%; D: -2.111%; E: 22.97%. Result for Cc1ccc(-c2cn3c(n2)CO[C@@H](CNCc2nccs2)C3)cc1 was A: 13.02%; B: 6.784%; C: 5.074%; D: 0.6829%; E: 20.27%. For CC1(C)CNC(=O)CN(C(=O)Cc2ccccc2)C1 the result was A: -2.577%; B: 8.678%; C: 31.47%; E: 2.062%. Result for O=C(NCCNc1ncccn1)NCc1cccc(OC(F)F)c1 was A: -1.951%; B: 5.625%; C: -7.092%; D: -1.358%; E: 15%. Cc1cnn(-c2cncc(C(N)=O)c2)c1 read A: -7.073%; B: 0.2718%; C: 8.729%; D: 0%; E: 19.2%. Result for COc1cccc(CN2CCCCC2Cn2nc(C)nc2C)c1 (stereo not given) was A: -4.826%; B: 6.644%; C: 34.39%; D: -2.328%; E: 15.38%.

Result for CN1CCN(c2ncnc3c2CCN(C(=O)c2cccn2C)CC3)CC1 was A: -0.618%; B: -5.312%; C: -4.21%; D: -0.9856%; E: -5%. COCCN1C[C@@H](C)[C@@]2(COCCN(C(=O)c3cnc(C)cn3)C2)C1 read A: 3.68%; D: 1.784%; E: 15.09%. Result for Cc1ccc(C(NC(=O)CN2CCc3cncnc3C2)C2CC2)cc1 (stereo not given) was A: 0.9901%; B: -14.14%; C: 13.21%; D: 0.06915%; E: 34%. For Cc1ccccc1OCCN1CCCC1CS(N)(=O)=O (stereo not given) the result was A: 4.177%; B: -8.301%; C: -21.41%; D: 1.22%; E: 15%. NS(=O)(=O)c1cnn(CCC(=O)N(Cc2ccccc2)C2CC2)c1 read A: -0.8929%; B: 0.0612%; C: 18.41%; D: -6.089%; E: 6.25%. With Cc1ccc(NC2CCN(C(=O)Cc3cccs3)CC2)nn1 the screen gave A: -6.003%; B: -28.68%; C: 20.58%; D: -6.53%; E: 15.18%.

For CC(C)NC(=O)[C@H]1C[C@@H]2[C@@H](C1)OCCN2Cc1cccnc1 the result was A: 1.396%; D: 2.413%; E: 3.774%. With NC(=O)CS(=O)(=O)Cc1csc(-c2ccc(F)cc2)n1 the screen gave A: 16.5%; B: 1.206%; C: -53.99%; D: -2.824%; E: 16.87%. With COc1ccccc1C(=O)NCCC(=O)Nc1c(C)nn(C)c1C the screen gave A: 18.79%; B: 0.9634%; C: 12.61%; D: -1.212%; E: 5%. With Cc1cccc(CN(C)Cc2nc3c(cnn3C)c(=O)[nH]2)c1 the screen gave A: 8.848%; B: -1.82%; C: 18.27%; D: 3.996%; E: 16.67%. C1CCC(c2nc3c(c(N4CCN5CCCC5C4)n2)CCNCC3)C1 (stereo not given) read A: 2.899%; B: -7.489%; C: 52.04%; D: 1.273%; E: 15.15%. Cc1cnn(CCCNC(=O)C2CCCCN2Cc2cccnc2)c1 (stereo not given) read B: 0.7002%; C: 17.35%; D: -2.167%; E: 2.857%.

C[C@@H](O)[C@H](NC(=O)c1csc2nc(-c3ccccc3F)cn12)C(N)=O read A: 2.254%; B: -4.12%; C: -0.9233%; D: -5.235%; E: 4.286%. CN1CC(=O)N(c2ccsc2)CC12CCN(C(=O)c1cccn1C)C2.O=C(O)C(F)(F)F (stereo not given) gave B: -9.824%; C: 15.83%. For COc1cccc([C@@]2(O)CC[C@@H]3CN(C(=O)c4ccn(C)n4)C[C@@H]32)c1 the result was A: 1.546% and 23.24%; D: 0.9791%; E: -8.392%. With CC(Cc1cccs1)C(=O)NCc1cccc(N2CCCC2=O)c1 (stereo not given) the screen gave A: 6.263%; B: 3.937%; C: 21.26%; D: 1.546%; E: 8.264%. Cn1cc(Cl)c(CN2CCn3nc(C(=O)N4CCCC4)cc3C2)n1 read A: -0.7673%; B: 8.221%; C: -42.64%; D: -1.417%; E: 6.557%. With CCC(C(=O)NC1CCCC1)n1ccc2ncccc2c1=O (stereo not given) the screen gave A: 3.676%; B: -4.681%; C: 3.135%; D: 6.272%; E: 21.52%.

From ChEMBL document CHEMBL3988442, “University of Dundee, Small-Polar-MMV Screening Library” (2021).